From patent US20230147053A1, “FUSED N-HETEROCYCLIC COMPOUNDS AND METHODS OF USE THEREOF” (Araxes Pharma LLC, priority 2017, published 2023)
Some of these results come from one statement about several compounds together.

Biological target: T1, KRAS G12C 1-169, his-tagged protein, GDP-loaded (Homo sapiens, UniProt P01116, G12C)
T1 construct: KRAS G12C 1-169, his-tagged protein, GDP-loaded
Test: Biochemical assay: covalent binding (modification) of KRAS G12C measured by mass spectrometry
Conditions: after a thirty minute incubation period
Description: Test compounds were prepared as 10 mM stock solutions in DMSO (Fisher cat #BP-231-100). KRAS G12C 1-169, his-tagged protein, GDP-loaded was diluted to 2 μM or 0.5 μM in buffer (20 mM Hepes, 150 mM NaCl, 1 mM MgCl2). Compounds were tested for activity as follows:
Compounds were diluted to 50× final test concentration in DMSO in 96-well storage plates. Compound stock solutions were vortexed before use and observed carefully for any sign of precipitation. […] The plate was then resealed with aluminum seal and stored on dry ice until analyzed as described below.
The above described assays were analyzed by mass spectrometry according to one of the following two procedures: […]
After another 30 minute equilibration time, a blank batch (i.e., buffer) is run to ensure equipment is operating properly. […] The method is then run and masses of each individual well recorded. […]
The masses and peak intensities of KRAS G12C protein species were measured using a Dionex RSLCnano system (Thermo Scientific) connected to a Q Exactive Plus mass spectrometer (Thermo Scientific). […]
The mass spectrometer was operated in profile mode at a resolution of 17500, 5 microscans, using 50 msec max injection time and an AGC target of 1×10^6, and a full mass range from 800-1850 m/z was recorded. […]

## C=CC(=O)N1CC(c2ccc3nc(-c4ccccc4)n(C)c(=O)c3c2)C1 [Compound 1, 6-(1-acryloylazetidin-3-yl)-3-methyl-2-phenylquinazolin-4(3H)-one]
  covalently bound to KRAS G12C: up to 5%

## C=CC(=O)N1CC(c2ccc3c(c2)CCN(c2c(C)ccc4[nH]ncc24)C3=O)C1 [Compound 2, 6-(1-acryloylazetidin-3-yl)-2-(5-methyl-1H-indazol-4-yl)-3,4-dihydroisoquinolin-1(2H)-one]
  covalently bound to KRAS G12C: up to 5%
